Data as given in PubChem BioAssay AID258 (DTP/NCI, 2004).
The list shows only some results of the screen, not a fair sample: it gathers tests that were run many times, whatever their T/C, doses with no T/C, and many T/C values between a quarter and a half above the control. Other doses and runs of a compound stand elsewhere. T/C is the treated group as % of the vehicle group. Some doses have a count of surviving animals in place of a T/C: the source holds a T/C of zero for them, seemingly a mark for toxic or unscored doses. Some survivor counts are full or nearly so, which does not show that the dose was tolerated: survival well below the control is almost never listed, so the zero probably covers shortened survival too. Counts of survivors are from the toxicity check (mostly the fifth day) where no day follows; animals may have died later. Schedules are NCI's codes, taken here to give the interval after Q, in days (D) or hours (H), and the number of doses after X. Some entries hold several experiments; their values stand side by side, smallest first. For survival time, this PubChem deposit counts one and a half times the control or more as active, and values a quarter to a half above the control carry no call in these data; other NCI protocols may use other cut-offs. Some T/C values carry the count of animals alive at the toxicity check (mostly the fifth day); without a count, all were alive then.

Tested on: CD2F1 mice, L1210 leukemia sc, survival T/C
Experiment: NCI In Vivo Anticancer Drug Screen. Data for tumor model L1210 Leukemia (subcutaneous) in CD2F1 (CDF1) mice
Conditions: T/C endpoint: median survival time, vehicle: saline, higher T/C = longer survival
Summary of the method: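 Mice with transplanted tumor dosed; survival/tumor size read; T/C vs vehicle controls.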

[1] = dose: 16.9 mg/kg/injection, schedule: Q01DX001 (ip)
[2] = dose: 25.3 mg/kg/injection, schedule: Q01DX001 (ip)

`Nc1ccn([C@@H]2C=C(CO)[C@@H](O)[C@H]2O)c(=O)n1` was tested, and the T/C (dose: 0.2 mg/kg/injection, schedule: Q03HX016 (ip)) was 125 % of control, the T/C (dose: 0.2 mg/kg/injection, schedule: Q03HX024 (ip)) was 134 % of control and the T/C (dose: 0.29 mg/kg/injection, schedule: Q03HX024 (ip)) was 126 % of control. For the same compound, the T/C (dose: 0.3 mg/kg/injection, schedule: Q03HX016 (ip)) was 127 % of control, the T/C (dose: 0.3 mg/kg/injection, schedule: Q03HX024 (ip)) was 141 % of control [5 of 6 alive] and the T/C (dose: 0.45 mg/kg/injection, schedule: Q03HX016 (ip), evaluated on day 30) was 141 % of control. The T/C (dose: 0.45 mg/kg/injection, schedule: Q03HX016 (ip), evaluated on day 45) was 134 % of control, the T/C (dose: 0.45 mg/kg/injection, schedule: Q03HX024 (ip)) was 144 % of control [5 of 6 alive] and the T/C (dose: 0.53 mg/kg/injection, schedule: Q01DX009 (ip)) was 142 % of control. The survivor count (dose: 0.66 mg/kg/injection, schedule: Q03HX016 (ip)) was 6 of 6 on day 7, the survivor count (dose: 0.66 mg/kg/injection, schedule: Q03HX024 (ip)) was 5 of 6 on day 7 and the T/C (dose: 0.67 mg/kg/injection, schedule: Q01DX009 (ip), evaluated on day 23) was 126 and 133 % of control. The T/C (dose: 0.67 mg/kg/injection, schedule: Q01DX009 (ip), evaluated on day 30) was 111 and 117 % of control, the T/C (dose: 0.67 mg/kg/injection, schedule: Q01DX009 (ip), evaluated on day 45) was 127 % of control and the T/C (dose: 0.67 mg/kg/injection, schedule: Q01DX009 (sc)) was 127 % of control. For the same compound, the T/C (dose: 0.67 mg/kg/injection, schedule: Q03HX016 (ip), evaluated on day 30) was 142 % of control, the T/C (dose: 0.67 mg/kg/injection, schedule: Q03HX016 (ip), evaluated on day 45) was 132 % of control and the survivor count (dose: 0.67 mg/kg/injection, schedule: Q03HX024 (ip)) was 6 of 6. The T/C (dose: 0.9 mg/kg/injection, schedule: Q03HX008 (ip)) was 132 % of control, the T/C (dose: 0.99 mg/kg/injection, schedule: Q01DX005 (iv)) was 135 % of control and the survivor count (dose: 0.99 mg/kg/injection, schedule: Q03HX016 (ip)) was 6 of 6 on day 7. The survivor count (dose: 0.99 mg/kg/injection, schedule: Q03HX024 (ip)) was 5 of 6 on day 7, the T/C (dose: 1.0 mg/kg/injection, schedule: Q01DX009 (ip), evaluated on day 23) was 150 and 155 % of control and the T/C (dose: 1.0 mg/kg/injection, schedule: Q01DX009 (ip), evaluated on day 30) was 177 and 183 % of control. For the same compound, the T/C (dose: 1.0 mg/kg/injection, schedule: Q01DX009 (ip), evaluated on day 45) was 201 % of control, the T/C (dose: 1.0 mg/kg/injection, schedule: Q03HX008 (ip)) was 132 % of control and the T/C (dose: 1.0 mg/kg/injection, schedule: Q03HX016 (ip)) was 144 % of control. For the same compound, the survivor count (dose: 1.0 mg/kg/injection, schedule: Q03HX024 (ip)) was 5 of 6, the T/C (dose: 1.3 mg/kg/injection, schedule: Q03HX008 (ip)) was 130 % of control and the survivor count (dose: 1.49 mg/kg/injection, schedule: Q03HX016 (ip)) was 6 of 6 on day 7. The T/C (dose: 1.5 mg/kg/injection, schedule: Q01DX009 (ip), evaluated on day 23) was 174 and 184 % of control, the T/C (dose: 1.5 mg/kg/injection, schedule: Q01DX009 (ip), evaluated on day 30) was 192 and 209 % of control and the T/C (dose: 1.5 mg/kg/injection, schedule: Q01DX009 (ip), evaluated on day 45) was 185 % of control. For the same compound, the T/C (dose: 1.5 mg/kg/injection, schedule: Q03HX008 (ip)) was 125 % of control, the survivor count (dose: 1.5 mg/kg/injection, schedule: Q03HX016 (ip)) was 6 of 6 and the survivor count (dose: 1.5 mg/kg/injection, schedule: Q06HX018 (ip)) was 6 of 6. For the same compound, the T/C (dose: 1.8 mg/kg/injection, schedule: Q01DX009 (ip)) was 134 % of control, the T/C (dose: 2.0 mg/kg/injection, schedule: Q03HX008 (ip)) was 143 % of control and the survivor count (dose: 2.23 mg/kg/injection, schedule: Q03HX008 (ip)) was 6 of 6 on day 7. For the same compound, the survivor count (dose: 2.23 mg/kg/injection, schedule: Q03HX016 (ip)) was 5 of 6 on day 7, the T/C (dose: 2.25 mg/kg/injection, schedule: Q01DX009 (ip), evaluated on day 23) was 115 and 119 % of control and the T/C (dose: 2.25 mg/kg/injection, schedule: Q01DX009 (ip), evaluated on day 30) was 116 and 206 % of control. The T/C (dose: 2.25 mg/kg/injection, schedule: Q01DX009 (ip), evaluated on day 45) was 192 % of control, the T/C (dose: 2.25 mg/kg/injection, schedule: Q03HX008 (ip)) was 134 % of control and the T/C (dose: 2.67 mg/kg/injection, schedule: Q03HX004 (iv)) was 127 % of control. For the same compound, the survivor count (dose: 3.34 mg/kg/injection, schedule: Q01DX005 (iv)) was 10 of 10 on day 7, the survivor count (dose: 3.34 mg/kg/injection, schedule: Q03HX008 (ip)) was 6 of 6 on day 7 and the T/C (dose: 4.0 mg/kg/injection, schedule: Q03HX004 (iv)) was 143 % of control. The survivor count (dose: 5.0 mg/kg/injection, schedule: Q01DX005 (iv)) was 10 of 10 on day 7, the survivor count (dose: 5.0 mg/kg/injection, schedule: Q03HX008 (ip)) was 6 of 6 on day 7 and the T/C (dose: 6.0 mg/kg/injection, schedule: Q03HX004 (iv)) was 148 % of control. The T/C (dose: 7.5 mg/kg/injection, schedule: Q01DX001 (ip)) was 125 % of control, the survivor count (dose: 13.5 mg/kg/injection, schedule: Q03HX004 (iv)) was 7 of 8 and the T/C (dose: 16.0 mg/kg/injection, schedule: Q01DX001 (ip)) was 134 % of control. The T/C (dose: 16.0 mg/kg/injection, schedule: Q01DX001 (iv)) was 127 % of control, the T/C [1] was 134 % of control and the survivor count [1] was 6 of 6 on day 7. The T/C (dose: 24.0 mg/kg/injection, schedule: Q01DX001 (ip)) was 137 % of control, the T/C (dose: 24.0 mg/kg/injection, schedule: Q01DX001 (iv)) was 144 % of control and the T/C [2] was 144 % of control. The survivor count [2] was 6 of 6 on day 7, the survivor count (dose: 25.3 mg/kg/injection, schedule: Q01DX001 (iv)) was 6 of 6 on day 7 and the T/C (dose: 36.0 mg/kg/injection, schedule: Q01DX001 (iv)) was 148 % of control. The survivor count (dose: 37.9 mg/kg/injection, schedule: Q01DX001 (ip)) was 6 of 6 on day 7, the survivor count (dose: 56.8 mg/kg/injection, schedule: Q01DX001 (ip)) was 6 of 6 on day 7 and the T/C (dose: 130.0 micrograms/kg/injection, schedule: Q03HX024 (ip)) was 137 % of control. For the same compound, the T/C (dose: 300.0 micrograms/kg/injection, schedule: Q03HX024 (ip)) was 141 % of control and the T/C (dose: 450.0 micrograms/kg/injection, schedule: Q03HX024 (ip)) was 142 % of control.
In the case of `CN(CCN(C)C(=O)CCOS(C)(=O)=O)C(=O)CCOS(C)(=O)=O`, the T/C (dose: 50.0 mg/kg/injection, schedule: Q01DX009 (ip)) is reported as 130 % of control, the T/C (dose: 100.0 mg/kg/injection, schedule: Q01DX009 (ip)) is reported as 142 % of control and the survivor count (dose: 400.0 mg/kg/injection, schedule: Q01DX009 (ip)) is reported as 7 of 10 and 10 of 10.
